# Screen size: about 320,000 compounds; about 2,100 (0.66%) were called active. This list was built around the results that the source calls inconclusive (neither active nor inactive); the mix of calls is not that of the screen. The call rests on the fitted dose curve; in most records, active means well fitted inhibition curve with a large enough effect in the signal ratio, with a control signal flat (not every such curve was filed as active); inconclusive means small, poorly fitted or top-dose-only effect, or effect the other way, or a change in a side signal; inactive means flat fitted curve, though single readings scatter; the % refers to the signal ratio. Where the call is inconclusive, the potency comes from a doubtful curve fit.
# Assay: qHTS Assay for Lipid Storage Modulators in Drosophila S3 Cells
# Conditions: BODIPY lipid droplet fluorescence, 18-24 h, cells fed with added oleic acid; lipid storage change, negative = inhibition: at 46.1 µM (top of the series) unless noted
# Summary of the method: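 Drosophila S3 cells got compounds at several concentrations plus oleic acid (400 uM solution). Laser-scanning cytometry with 488 nm excitation read lipid droplets at 500-530 nm and cells at 575-640 nm. Percent activity was relative to 20 uM Triacsin C.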
# On the % scale 0 is the no-effect control and ±100 the full control effect; potency means the concentration at half of the fitted maximal effect.
SMILES,"lipid storage change, negative = inhibition",Potency
CCCNC(=O)N1CCC(c2nc3ccccc3s2)CC1,inconclusive: 13.7%,
O=C(CSc1nnc(-c2cccnc2)n1CCc1ccccc1)N1CCCCC1,,"inconclusive: 0.651 µM [activator, full curve]"
Cc1ccc(C(C(=O)NC2CCCCC2)N(C(=O)c2csnn2)c2ccccc2F)o1 (stereo unspecified),inconclusive: -49%,
CCOc1ccc(-n2cc(-c3ccccc3)c3c(=S)nc[nH]c32)cc1,,"inconclusive: 1.46 µM [activator, full curve]"
COc1ccc(CCNC(=O)CS(=O)(=O)Cc2nc(-c3ccc(C)cc3)oc2C)cc1OC,,"inconclusive: 8.2 µM [activator, partial curve]"
Cc1ccc(-n2nnc3c(=O)n(CC(=O)c4ccccc4)cnc32)cc1,inconclusive: 13.1%,
CCc1nn(C(CC)C(=O)NCc2cccc(OC)c2OC)c(=O)c2cc3occc3n12 (stereo unspecified),,active: 10.3 µM
NC(=O)CC(NC(=O)Cc1cccc2ccccc12)c1ccc(N2CCN(c3ccccn3)CC2)c([N+](=O)[O-])c1 (stereo unspecified),inconclusive: -66.6%,
O=C(c1ccc2c(=O)n(Cc3ccco3)c(=S)[nH]c2c1)N1CCN(Cc2ccccc2)CC1,inconclusive: -9.75%,
C/C(=N\NC(=O)COc1ccccc1[N+](=O)[O-])c1cccc(NC(=O)c2ccncc2)c1,,"inconclusive: 13 µM [cytotoxic, partial curve]"
O=c1oc2ccccc2cc1-c1nnc(-c2cccc(Br)c2)o1,inconclusive: 51.6%,
N#CC1=C(SCC(=O)Nc2ccccc2)NC(=O)CC1c1ccc(O)cc1 (stereo unspecified),inconclusive: 2.19%,
CCOC(=O)c1cc2c(=O)n3cc(C)ccc3nc2n(Cc2cccnc2)c1=N,inconclusive: 8.57%,
COCc1nc(-c2ccc(-c3ccccc3)nc2OC)no1,inconclusive: -29.8%,
O=[N+]([O-])c1ccccc1S(=O)(=O)Nc1ccn(Cc2c(F)cccc2Cl)n1,,"inconclusive: 29.1 µM [activator, single point]"
N#Cc1c(N)c(C#N)c(-c2ccc(O)cc2)c2c1CCCC2,inconclusive: 11.3%,
COc1ccc(C(=O)Nc2ccc3c(c2)OCCO3)cc1[N+](=O)[O-],inconclusive: 44.4%,
Cc1cc(C)nc(N(C#N)Cc2cccc3ccccc23)n1,,"inconclusive: 1.3 µM [activator, full curve, poor fit]"
Cc1ccc(C(=O)Nc2ncc3c(n2)CC(c2ccco2)CC3=O)cc1 (stereo unspecified),,"inconclusive: 0.0058 µM [activator, full curve, poor fit]"
CCCCCN(C(=O)COC(=O)c1ccc(Br)o1)c1c(N)n(CCCC)c(=O)[nH]c1=O,inconclusive: 6.57%,
Cc1oc(-c2ccccc2F)nc1CS(=O)(=O)CC(=O)NC(C)CCc1ccccc1 (stereo unspecified),inconclusive: -49.1%,
O=[N+]([O-])c1cc(-c2cnc3ccccc3n2)ccc1Oc1ccc(Cl)cc1,,"inconclusive: 23.1 µM [falling, single point]"
O=C(Nc1cccnc1)c1ccc(Br)s1,,"inconclusive: 29.1 µM [falling, single point]"

SMILES,"lipid storage change, negative = inhibition",Potency
O=C(c1ccc(F)cc1)n1c(NCc2ccccc2)n[nH]c1=S,inconclusive: -1.74%,
O=CC1=C(c2ccccc2)Oc2ccccc2O1,,"inconclusive: 16.4 µM [falling, single point]"
COc1cccc(NC(=O)NC2CCN(Cc3nnnn3Cc3ccc(F)cc3)CC2)c1,inconclusive: 30.2%,
CC(=O)N1CCN(C(=O)c2cccc(S(=O)(=O)Nc3c(C)n(C)n(-c4ccccc4)c3=O)c2)CC1,inconclusive,
O=C(Cn1ccc2ccccc2c1=O)NCCC(=O)Nc1ccc2c(c1)OCCO2,inconclusive: -16.5%,
CCC/C=C(\CCC)C(NS(=O)(=O)c1ccc(C(F)(F)F)cc1)c1ccccc1 (stereo unspecified),inconclusive: 17.8%,
COc1ccc(NC(=O)NC2CCCCCCC2)cc1,,"inconclusive: 0.355 µM [falling, single point]"
Cc1cccc(C(=O)Nc2sc(C)c(-c3ccccc3)c2C#N)c1,inconclusive: 12%,
O=C(COc1ccc([N+](=O)[O-])cc1)N1CCN(c2nnc(-c3ccccc3)c3ccccc23)CC1,,"inconclusive: 0.58 µM [falling, full curve, poor fit]"
CCOC(=O)N1CCN(C(=O)CNS(=O)(=O)c2c(C)cc(C)cc2C)CC1,,"inconclusive: 0.461 µM [falling, partial curve, poor fit]"
CC(C)n1ncc2c(C(=O)N3CCN(Cc4ccc(Cl)s4)CC3)cc(C3CC3)nc21,,"inconclusive: 18.4 µM [falling, single point]"
O=C1c2cccc3cccc(c23)C(=O)N1OS(=O)(=O)c1ccccc1,inconclusive: 0.0013%,
CN(C)CCNc1ncnc2c1sc1nc(-c3ccccc3)c3c(c12)CCCC3,inconclusive: -32.8%,
Nn1c(SCC(=O)N2CCOCC2)nnc1-c1ccc(Cl)cc1Cl,,"inconclusive: 0.58 µM [activator, single point]"
CCS(=O)(=O)n1nc(C(=O)N2CCOCC2)nc1N,,"inconclusive: 18.4 µM [cytotoxic, partial curve]"
CCCc1cc(=O)[nH]c(SCC(=O)Nc2nc3ccc(OCC)cc3s2)n1,,"inconclusive: 0.0046 µM [falling, full curve, poor fit]"
CC(C)c1ccc(NC(=S)NCCc2c[nH]c3ccccc23)cc1,inconclusive: 32.4%,
CCN(CC)S(=O)(=O)c1cccc(C(=O)N/N=C/c2c(C)nn(-c3ccccc3)c2Cl)c1,inconclusive: -2.93%,
Cc1ccc(-c2csc(SCC(=O)c3c(N)n(C4CC4)c(=O)[nH]c3=O)n2)cc1,inconclusive,
O=C(CSc1nnc(CSc2nc3ccccc3s2)o1)NC1CCCCC1,inconclusive: 8.33%,
COc1cc(C(=O)NCC(c2ccccc2)N(C)C)ccc1OCc1c(C)noc1C (stereo unspecified),inconclusive: -35.9%,
CCc1cccc(NC(=O)NC(=O)Cn2nnc(C(=O)OC)c2C(=O)OC)c1,inactive,
O=C(O)c1ccc(/C=N/NC(=O)C2CC2(c2ccccc2)c2ccccc2)cc1 (stereo unspecified),inconclusive: 39.2%,

# A second format for four compounds above.
SMILES	lipid storage change, negative = inhibition	Potency
Cc1ccc(C(C(=O)NC2CCCCC2)N(C(=O)c2csnn2)c2ccccc2F)o1 (stereo unspecified)	inconclusive: -49%	
CCOc1ccc(-n2cc(-c3ccccc3)c3c(=S)nc[nH]c32)cc1		inconclusive: 1.46 µM [activator, full curve]
COc1ccc(CCNC(=O)CS(=O)(=O)Cc2nc(-c3ccc(C)cc3)oc2C)cc1OC		inconclusive: 8.2 µM [activator, partial curve]
Cc1ccc(-n2nnc3c(=O)n(CC(=O)c4ccccc4)cnc32)cc1	inconclusive: 13.1%	

# Reference: PubChem BioAssay AID2685 (National Center for Advancing Translational Sciences (NCATS), 2010)
